Data source: PubChem BioAssay AID1053209 (Peter MacCallum Cancer Centre, 2014)
The whole screen tested about 1,580 reagents; below is an unselected part. 207 of all reagents (13%) count as active. 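Rows are single siRNAs; four siRNAs per gene were tested, a gene counting as confirmed only when at least two agree.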 The numbers tell different reagents against one gene apart.

Purpose: 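Follow-up of single siRNAs that strengthen doxorubicin killing in osteosarcoma cells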 (follow-up of hits)
System: mouse primary osteosarcoma cells
Reagents: single siRNA against mouse genes, 25 nM (text also states 40 nM)
Duration: about 120 h (48 h before drug, then 72 h with drug)
Treatment: doxorubicin 100 nM (about IC30-40), added 48 h after transfection, for 72 h
Read-out: 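ATP-based luminescent viability, with or without doxorubicin, relative to non-targeting control NT1, mean of two replicates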
Reading the numbers: viability with doxorubicin, vs NT1: higher = more viable cells under doxorubicin; viability ratio, doxorubicin over no drug: higher = less sensitisation to doxorubicin; viability without drug, vs NT1: higher = more viable cells without drug
Rule for the call: 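Active when doxorubicin viability is at most 0.7 of NT1 and drug-free viability lies between 0.7 and 1.1, class LC dox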

no.	gene	reagent	combined effect class	viability with doxorubicin, vs NT1	viability ratio, doxorubicin over no drug	viability without drug, vs NT1	activity call
1	Rnf122 (ring finger protein 122)	1	normal viability with and without drug	0.97	1.03	0.94	inactive
2	Rnf122 (ring finger protein 122)	2	high viability only without drug	1.02	0.89	1.15	inactive
3	Rnf122 (ring finger protein 122)	3	normal viability with and without drug	0.73	0.76	0.96	inactive
4	Rnf122 (ring finger protein 122)	4	normal viability with and without drug	0.93	0.97	0.96	inactive
5	Rpl7a (ribosomal protein L7A)	1	low viability with and without drug	0.3	0.68	0.44	inactive
6	Rpl7a (ribosomal protein L7A)	2	low viability with and without drug	0.24	0.86	0.28	inactive
7	Rpl7a (ribosomal protein L7A)	3	low viability with and without drug	0.4	0.7	0.57	inactive
8	Rpl7a (ribosomal protein L7A)	4	low viability with and without drug	0.3	0.65	0.46	inactive
9	Sf3a1 (splicing factor 3a, subunit 1)	1	low viability with and without drug	0.33	0.69	0.48	inactive
10	Sf3a1 (splicing factor 3a, subunit 1)	2	low viability with and without drug	0.19	0.35	0.55	inactive
11	Sf3a1 (splicing factor 3a, subunit 1)	3	low viability only with doxorubicin; normal without drug	0.43	0.6	0.72	active
12	Sf3a1 (splicing factor 3a, subunit 1)	4	low viability with and without drug	0.13	0.41	0.32	inactive
13	Nup188 (nucleoporin 188)	1	low viability only with doxorubicin; normal without drug	0.56	0.63	0.89	active
14	Nup188 (nucleoporin 188)	2	normal viability with and without drug	0.99	0.98	1.01	inactive
15	Nup188 (nucleoporin 188)	3	normal viability with and without drug	0.72	0.88	0.82	inactive
16	Nup188 (nucleoporin 188)	4	low viability with and without drug	0.48	0.76	0.63	inactive
17	Pold3 (polymerase (DNA-directed), delta 3, accessory subunit)	1	normal viability with and without drug	0.72	0.8	0.9	inactive
18	Pold3 (polymerase (DNA-directed), delta 3, accessory subunit)	2	normal viability with and without drug	0.86	0.95	0.91	inactive
19	Pold3 (polymerase (DNA-directed), delta 3, accessory subunit)	3	normal viability with and without drug	0.8	0.86	0.93	inactive
20	Pold3 (polymerase (DNA-directed), delta 3, accessory subunit)	4	normal viability with and without drug	0.72	0.81	0.89	inactive
21	Lyrm1 (LYR motif containing 1)	1	high viability only with doxorubicin	1.16	1.35	0.86	inactive
22	Lyrm1 (LYR motif containing 1)	2	normal viability with and without drug	0.92	0.87	1.06	inactive
23	Lyrm1 (LYR motif containing 1)	3	normal viability with and without drug	0.82	0.77	1.06	inactive
24	Lyrm1 (LYR motif containing 1)	4	normal viability with and without drug	0.92	0.9	1.02	inactive
25	Plk2 (polo like kinase 2)	1	low viability with and without drug	0.16	0.42	0.38	inactive
26	Plk2 (polo like kinase 2)	2	normal viability with and without drug	0.89	0.89	1	inactive
27	Plk2 (polo like kinase 2)	3	normal viability with and without drug	1	1	1	inactive
28	Plk2 (polo like kinase 2)	4	normal viability with and without drug	0.94	0.87	1.08	inactive
29	Ndufa8 (NADH:ubiquinone oxidoreductase subunit A8)	1	normal viability with and without drug	0.75	0.77	0.98	inactive
30	Ndufa8 (NADH:ubiquinone oxidoreductase subunit A8)	2	normal viability with and without drug	0.96	1.02	0.94	inactive
31	Ndufa8 (NADH:ubiquinone oxidoreductase subunit A8)	3	normal viability with and without drug	0.9	0.92	0.98	inactive
32	Ndufa8 (NADH:ubiquinone oxidoreductase subunit A8)	4	normal viability with and without drug	0.85	0.89	0.96	inactive
33	Il3 (interleukin 3)	1	normal viability with and without drug	0.97	0.97	1	inactive
34	Il3 (interleukin 3)	2	high viability only with doxorubicin	1.14	1.09	1.05	inactive
35	Il3 (interleukin 3)	3	normal viability with and without drug	1.03	1.05	0.98	inactive
36	Il3 (interleukin 3)	4	high viability only with doxorubicin	1.16	1.12	1.04	inactive
37	Fbn1 (fibrillin 1)	1	normal viability with and without drug	0.92	0.94	0.98	inactive
38	Fbn1 (fibrillin 1)	2	normal viability with and without drug	0.84	0.93	0.9	inactive
39	Fbn1 (fibrillin 1)	3	normal viability with and without drug	0.95	1.01	0.94	inactive
40	Fbn1 (fibrillin 1)	4	normal viability with and without drug	1.08	1.19	0.91	inactive

2 of these entries, set out differently.
gene,reagent,combined effect class,"viability with doxorubicin, vs NT1","viability ratio, doxorubicin over no drug","viability without drug, vs NT1",activity call
Nup188 (nucleoporin 188),2,normal viability with and without drug,0.99,0.98,1.01,inactive
Nup188 (nucleoporin 188),3,normal viability with and without drug,0.72,0.88,0.82,inactive
